According to PubChem BioAssay AID504327 (National Center for Advancing Translational Sciences (NCATS), 2011):
Among all 390,000 compounds or so, about 820 (0.21%) were called active. Inconclusive means that the source gave no clear call. Such entries were picked first, then a sample of the others. The call rests on the fitted dose curve; in most records, active means well fitted inhibition curve with a large enough effect; inconclusive means small, poorly fitted or top-dose-only effect, or another doubt; inactive means no such curve, though single readings can be large or run the other way. Where the call is inconclusive, the potency comes from a doubtful curve fit.

Amino acid sequences for entries named in this document (tags omitted).
UniProt Q92830, whole entry, looked up: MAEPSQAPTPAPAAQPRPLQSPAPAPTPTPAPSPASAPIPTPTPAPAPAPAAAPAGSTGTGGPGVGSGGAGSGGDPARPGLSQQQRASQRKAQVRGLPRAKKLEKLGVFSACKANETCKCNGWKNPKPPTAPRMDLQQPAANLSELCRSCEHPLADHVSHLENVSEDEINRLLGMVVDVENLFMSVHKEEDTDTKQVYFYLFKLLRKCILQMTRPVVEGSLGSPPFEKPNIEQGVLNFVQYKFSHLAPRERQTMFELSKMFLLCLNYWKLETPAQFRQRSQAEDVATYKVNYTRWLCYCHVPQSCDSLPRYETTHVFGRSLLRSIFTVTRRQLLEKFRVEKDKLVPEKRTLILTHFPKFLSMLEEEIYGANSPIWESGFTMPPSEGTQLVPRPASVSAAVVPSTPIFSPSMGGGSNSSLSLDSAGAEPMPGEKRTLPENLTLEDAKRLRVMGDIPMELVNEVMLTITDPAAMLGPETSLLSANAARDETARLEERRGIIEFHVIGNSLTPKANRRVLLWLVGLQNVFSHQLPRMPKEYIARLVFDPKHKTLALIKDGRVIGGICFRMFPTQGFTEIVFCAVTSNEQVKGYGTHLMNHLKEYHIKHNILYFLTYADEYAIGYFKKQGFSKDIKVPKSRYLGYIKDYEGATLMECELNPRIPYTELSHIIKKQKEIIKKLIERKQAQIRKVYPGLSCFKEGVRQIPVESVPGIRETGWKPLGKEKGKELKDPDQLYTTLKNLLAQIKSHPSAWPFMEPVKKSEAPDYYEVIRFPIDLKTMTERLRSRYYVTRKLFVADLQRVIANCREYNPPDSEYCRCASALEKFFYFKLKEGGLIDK

Target: Histone acetyltransferase KAT2A (Homo sapiens) (UniProt Q92830)
Experiment: qHTS Assay for Inhibitors of GCN5L2
Settings: GCN5L2 HAT assay, ThioGlo1 CoA-SH fluorescence; activity change, negative = inhibition: at 58.9 µM (top of the series) unless noted
Summary of the method: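 Preincubate 20nM GCN5L2 with compound 15 min, RT → add 50uM ThioGlo1 + 75uM H3(1-25) + 70uM acetyl-CoA → read fluorescence 0 and 20 min. Primary qHTS; fluorescent artifacts likely.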
On the % scale 0 is the no-effect control and ±100 the full control effect; potency means the concentration at half of the fitted maximal effect.

**Q.** Which Potency does the source give for CCCCn1c(N)c(C(=O)OCCOC)c2nc3ccccc3nc21 here?
**A.** inconclusive: 11.2 µM [inhibitor, partial curve]

**Q.** For c1ccc2sc(C3CCCNC3)nc2c1 (configuration not stated), which Potency is on record?
**A.** inconclusive: 39.8 µM [inhibitor, partial curve, poor fit]

**Q.** With Cc1cc(=O)oc2c(C)c(OCC(=O)N3CCN(Cc4ccccc4)CC3)ccc12 as the compound, how does the Potency read?
**A.** inconclusive: 1.78 µM [inhibitor, full curve]

**Q.** How did the Potency turn out when Cc1ccc2nc3sc(=O)sc3nc2c1 was run?
**A.** inconclusive: 14.1 µM [inhibitor, partial curve]

**Q.** With COc1ccc2c(c1)c(CCN1CCOCC1)c(C)n2C(=O)c1cccc(Cl)c1Cl as the compound, how does the Potency read?
**A.** inconclusive: 28.2 µM [inhibitor, single point]

**Q.** For C1=CC(Cc2cncs2)c2ccccc21 (configuration not stated), which Potency is on record?
**A.** inconclusive: 35.5 µM [inhibitor, single point]

**Q.** With OCCN(CC#CC(O)(c1ccccc1)C1CCCC1)CCO (configuration not stated) as the compound, how does the “activity change, negative = inhibition” value read?
**A.** inactive: 3.25%

**Q.** How did the Potency turn out when N#Cc1ccccc1Cn1cc(C(=O)c2ccccc2F)c2ccccc21 was run?
**A.** inconclusive: 39.8 µM [inhibitor, single point]

**Q.** CCCN(CCC)CCc1c[nH]c2ccc(C(N)=O)cc12 was tested. Which Potency did it give?
**A.** inconclusive: 39.8 µM [inhibitor, single point]

**Q.** With CC(C)=CCCC1(C)C=Cc2c(O)c3c(c(CC=C(C)C)c2O1)OC12C(CC4CC1C(C)(C)OC2(C/C=C(/C)C(=O)O)C4O)C3=O (configuration not stated) as the compound, how does the Potency read?
**A.** inconclusive: 22.4 µM [inhibitor, partial curve]

**Q.** How did the Potency turn out when CC(C)=CCc1c(O)cc2c(c1O)C(=O)CC(c1ccc(O)cc1)O2 (configuration not stated) was run?
**A.** inconclusive: 6.31 µM [inhibitor, partial curve, poor fit]

**Q.** CN1CCN(CC(=O)Nc2ccc([N+](=O)[O-])cc2C(=O)c2ccccc2)CC1 was tested. Which “activity change, negative = inhibition” value did it give?
**A.** inactive: -3.9%

**Q.** Which Potency does the source give for CC(C)n1c(O)c(C2c3cc(Cl)ccc3Oc3[nH]c(=O)n(C(C)C)c(=O)c32)c(=O)[nH]c1=O (configuration not stated) here?
**A.** active: 28.2 µM

**Q.** Which Potency does the source give for Cc1ccsc1/C=N/NC(=O)Cc1cc(=O)[nH][nH]1 here?
**A.** inconclusive: 25.1 µM [inhibitor, partial curve]

**Q.** How did the “activity change, negative = inhibition” value turn out when CCOC(=O)N(c1ccccc1)P1(=S)OCC(C)O1 (configuration not stated) was run?
**A.** inactive: -4.91%

**Q.** How did the “activity change, negative = inhibition” value turn out when COCCCn1c(N)c(C(=O)Nc2ccccc2)c2nc3ccccc3nc21 was run?
**A.** inactive: -6.29%

**Q.** Which Potency does the source give for Cn1c(O)c(/C=C/C=Nc2ccccc2)c(=O)n(C)c1=S here?
**A.** inconclusive: 17.8 µM [inhibitor, partial curve, poor fit]

**Q.** COc1ccc(CN2CCN(C(=O)COc3ccccc3)CC2)c(OC)c1 was tested. Which “activity change, negative = inhibition” value did it give?
**A.** inactive: 3.2%

**Q.** Which Potency does the source give for C=C1C(=O)O[C@@H]2C[C@@H](C)[C@@H]3C=CC(=O)[C@@]3(C)[C@@H](O)[C@H]12 here?
**A.** inconclusive: 25.1 µM [inhibitor, single point]

**Q.** CC(=O)c1c(C)n(CC2CCCO2)c2ccc(O)cc12 (configuration not stated) was tested. Which “activity change, negative = inhibition” value did it give?
**A.** inactive: -5.69%

**Q.** For COC(=O)C1=C(c2ccc(F)cc2F)C[C@@H]2CC[C@H]1N2C(=O)N1CCC(C)CC1, which “activity change, negative = inhibition” value is on record?
**A.** inactive: -0.26%

**Q.** Which Potency does the source give for CC(C)(O)C(Cl)(Cl)Cl here?
**A.** inconclusive: 39.8 µM [inhibitor, single point]

**Q.** How did the “activity change, negative = inhibition” value turn out when CCC/C=C/C=C/C(=O)OC1/C(=C/C(=O)OC)CC2CC(C(C)O)OC(=O)CC(O)CC3CC(OC(C)=O)C(C)(C)C(O)(CC4C/C(=C/C(=O)OC)CC(/C=C\C(C)(C)C1(O)O2)O4)O3 (configuration not stated) was run?
**A.** inactive: -17.2%

**Q.** Which Potency does the source give for COc1ccc(CCN)cc1OC here?
**A.** inconclusive: 3.16 µM [inhibitor, partial curve, poor fit]

**Q.** For C[C@H](NC(=O)N1C[C@H]2C[C@@H](C1)c1cccc(=O)n1C2)C(=O)Nc1cccc(F)c1, which “activity change, negative = inhibition” value is on record?
**A.** inactive: -0.778%

**Q.** How did the Potency turn out when CCN1CCN(S(=O)(=O)c2ccc(Cl)c(C(=O)N(CC)CC(=O)Nc3ccc(OC)cc3)c2)CC1 was run?
**A.** inconclusive: 0.708 µM [inhibitor, single point]

**Q.** How did the “activity change, negative = inhibition” value turn out when O=c1c2ccccc2nc(/C=C/c2ccccc2O)n1-c1ccccc1O was run?
**A.** inactive: 1.46%

**Q.** For Cc1ccc2c(c1)C1C[N+](C)(CC(=O)c3ccc(Cl)cc3Cl)CCC1N2C(=O)c1ccc(F)cc1 (configuration not stated), which Potency is on record?
**A.** inconclusive: 25.1 µM [inhibitor, single point]

**Q.** With CCOc1ccc(-c2cc(C)[n+](CCO)c(-c3ccc(OCC)cc3)c2)cc1 as the compound, how does the Potency read?
**A.** inconclusive: 22.4 µM [inhibitor, single point]

**Q.** N#Cc1ccc(CN2CC[C@@]3(CCCN(C(=O)Oc4ccccc4)C3)C2)cc1 was tested. Which “activity change, negative = inhibition” value did it give?
**A.** inactive: 1.86%

**Q.** With CC1=C2CCC3C4CCC(=O)[C@@]4(C)CCC3[C@]2(C)CCC1=O (some centres not stated) as the compound, how does the “activity change, negative = inhibition” value read?
**A.** inactive: 10.4%

**Q.** For CCCCN1C(=O)/C(=C/c2ccc(N(C)C)cc2)C(=O)N(Cc2ccco2)C1=O, which Potency is on record?
**A.** inconclusive: 39.8 µM [inhibitor, single point]

**Q.** For CC(C)NCC(O)c1ccc(C2CCCC2)cc1 (configuration not stated), which “activity change, negative = inhibition” value is on record?
**A.** inactive: 2.47%

**Q.** For O=C1NC(=O)N(c2cccc(F)c2)C(=O)/C1=C/c1ccc(N2CCOCC2)cc1, which Potency is on record?
**A.** inconclusive: 0.158 µM [inhibitor, full curve, poor fit]

**Q.** For N#Cc1c(/N=C/c2c(O)n(Cc3ccco3)c(=O)[nH]c2=O)sc2c1CCCC2, which Potency is on record?
**A.** inconclusive: 39.8 µM [inhibitor, single point]

**Q.** With C=C(C)[C@]12C[C@@H](C)[C@@]34OC(Cc5ccccc5)(O[C@@H]1[C@@H]3C=C(COC(=O)Cc1cc(I)c(O)c(OC)c1)C[C@]1(O)C(=O)C(C)=C[C@@H]41)O2 as the compound, how does the Potency read?
**A.** inconclusive: 2.82 µM [inhibitor, full curve, poor fit]

**Q.** O=C(CCNC(=O)N1C[C@H]2C[C@@H](C1)c1cccc(=O)n1C2)Nc1ccc(F)cc1 was tested. Which “activity change, negative = inhibition” value did it give?
**A.** inactive: 16.5%

**Q.** Which Potency does the source give for [O]=[Cr](=[O])([OH])[O][Cr](=[O])(=[O])[OH] here?
**A.** inconclusive: 14.1 µM [inhibitor, partial curve]

**Q.** For O=C(COc1ccc(Br)cc1)N1CCN(Cc2ccc3c(c2)OCO3)CC1, which Potency is on record?
**A.** inconclusive: 5.01 µM [inhibitor, partial curve, poor fit]

**Q.** C[C@]12CCC3C(C=CC4=CC(=O)CC[C@]43C)C1CC[C@]2(O)CCC(=O)O (some centres not stated) was tested. Which “activity change, negative = inhibition” value did it give?
**A.** inactive: 1.19%

**Q.** How did the “activity change, negative = inhibition” value turn out when CCN(CC)C(=O)c1ccc(NC(=O)COc2ccccc2F)cc1 was run?
**A.** inactive: 0.0058%

**Q.** Which “activity change, negative = inhibition” value does the source give for CC1(C)C[C@H]2C=C(C=O)[C@]3(C=O)C[C@]3(C)[C@H]2C1 here?
**A.** inactive: -3.12%

**Q.** How did the Potency turn out when O=C(O)c1ccccc1C(=O)O was run?
**A.** inconclusive: 14.1 µM [inhibitor, partial curve]

**Q.** Which Potency does the source give for Nc1nc(N)c2nc(CNc3ccc(C(=O)NC(CCC(=O)O)C(=O)O)cc3)cnc2n1 (configuration not stated) here?
**A.** inconclusive: 31.6 µM [inhibitor, partial curve]

**Q.** CN(C)C(=S)SC(=S)N(C)C was tested. Which Potency did it give?
**A.** inconclusive: 17.8 µM [inhibitor, partial curve]

**Q.** With CC(C)CCn1c(N)c(C(=O)NCc2cccs2)c2nc3ccccc3nc21 as the compound, how does the Potency read?
**A.** inconclusive: 10 µM [inhibitor, single point]

**Q.** How did the Potency turn out when CCOP(=O)(OCC)c1nc(-c2cccc3ccccc23)oc1N1CCCCC1 was run?
**A.** inconclusive: 35.5 µM [inhibitor, single point]

**Q.** With C[C@]12Cc3cn4c(nc3C=C1CCC1C2CC[C@@]2(C)[C@H]1CC[C@@]2(O)C#N)nc1ccccc14 (some centres not stated) as the compound, how does the Potency read?
**A.** inconclusive: 17.8 µM [inhibitor, partial curve]

**Q.** With NNc1ccccc1 as the compound, how does the Potency read?
**A.** inconclusive: 11.2 µM [inhibitor, partial curve]

**Q.** With CCCCC/C=C\C/C=C\C/C=C\C/C=C\CCCC(=O)N(Cc1ccc(O)c(Cl)c1)Cc1ccc(O)c(Cl)c1 as the compound, how does the Potency read?
**A.** inconclusive: 39.8 µM [inhibitor, single point]

**Q.** With NCCc1cc(O)c(O)cc1O as the compound, how does the Potency read?
**A.** inconclusive: 1.26 µM [inhibitor, full curve]

**Q.** With F[Si-2](F)(F)(F)(F)F as the compound, how does the Potency read?
**A.** inconclusive: 31.6 µM [inhibitor, single point]

**Q.** For COC([CH2][Hg])CNC(=O)c1ccccc1OCC(=O)O (configuration not stated), which Potency is on record?
**A.** active: 0.891 µM

**Q.** How did the “activity change, negative = inhibition” value turn out when NC(=S)/N=C/c1c(O)[nH]c(=O)[nH]c1=O was run?
**A.** inactive: -4.11%

**Q.** O=C1NC(=O)N(c2ccc(Cl)cc2)C(=O)/C1=C\c1ccc(Sc2nc3ccccc3[nH]2)o1 was tested. Which Potency did it give?
**A.** inconclusive: 31.6 µM [inhibitor, single point]

**Q.** Which Potency does the source give for N#C/C(=C/c1ccc(O)c(O)c1)C(N)=S here?
**A.** inconclusive: 17.8 µM [inhibitor, partial curve]

**Q.** CN(C)[C@@H]1C(=O)C(C(N)=O)=C(O)[C@@]2(O)C(=O)C3=C(O)c4c(O)ccc(Cl)c4[C@@](C)(O)[C@H]3C[C@@H]12 was tested. Which “activity change, negative = inhibition” value did it give?
**A.** inactive: -17.6%

**Q.** For CC[C@@]1(O)C(=O)OCc2c1cc1n(c2=O)Cc2cc3ccccc3nc2-1, which Potency is on record?
**A.** inconclusive: 17.8 µM [inhibitor, partial curve]

**Q.** Which Potency does the source give for S=c1[nH]c2cc(Br)cnc2[nH]1 here?
**A.** inconclusive: 28.2 µM [inhibitor, single point]

**Q.** O=C(O)COc1ccc(Br)cc1C(c1c(C(=O)O)[nH]c2ccccc12)c1c(C(=O)O)[nH]c2ccccc12 was tested. Which Potency did it give?
**A.** inconclusive: 39.8 µM [inhibitor, single point]

**Q.** C=CCN1C(=O)C2(C(C(=O)OCC)=C(N)Oc3ccccc32)C2=C1CCCC2=O (configuration not stated) was tested. Which Potency did it give?
**A.** inconclusive: 39.8 µM [inhibitor, single point]

**Q.** For Cc1ccccc1C(=O)Nc1sc2c(c1C(=O)O)CCC(C(C)(C)C)C2 (configuration not stated), which Potency is on record?
**A.** inconclusive: 39.8 µM [inhibitor, single point]

**Q.** O=C(O)Cn1cc(/C=C2\C(=O)NC(=O)N(c3ccc(F)cc3)C2=O)c2ccccc21 was tested. Which “activity change, negative = inhibition” value did it give?
**A.** inactive: -8.52%

**Q.** With CN(C)c1ccc(/C=C2/C(=O)NC(=O)N(CCc3ccc(F)cc3)C2=O)cc1 as the compound, how does the Potency read?
**A.** inconclusive: 35.5 µM [inhibitor, single point]

**Q.** For O=[N+]([O-])c1ccc(Cl)cc1, which Potency is on record?
**A.** inconclusive: 20 µM [inhibitor, partial curve]

**Q.** Cc1ccc(OCC(=O)N2CCN(C3CCC(c4ccccc4)CC3)CC2)cc1 (configuration not stated) was tested. Which “activity change, negative = inhibition” value did it give?
**A.** inactive: -7.33%

**Q.** For CC1(C)CN=C(Nc2nc3ccccc3s2)S1, which “activity change, negative = inhibition” value is on record?
**A.** inactive: 0.49%
